Results: article doi:10.1101/2025.07.31.667977
These are yes or no findings as the source states them, for the method shown. Binding seen in cells or lysates may run through a third protein. Some entries that bind do so weakly or less than the wild type.

Sequences of proteins named here, by UniProt entry; tags and fusion partners are left off. A change or cut given only in a name is not applied to a line headed by its entry. Residues count along the entry.
UniProt O43567, 35-381: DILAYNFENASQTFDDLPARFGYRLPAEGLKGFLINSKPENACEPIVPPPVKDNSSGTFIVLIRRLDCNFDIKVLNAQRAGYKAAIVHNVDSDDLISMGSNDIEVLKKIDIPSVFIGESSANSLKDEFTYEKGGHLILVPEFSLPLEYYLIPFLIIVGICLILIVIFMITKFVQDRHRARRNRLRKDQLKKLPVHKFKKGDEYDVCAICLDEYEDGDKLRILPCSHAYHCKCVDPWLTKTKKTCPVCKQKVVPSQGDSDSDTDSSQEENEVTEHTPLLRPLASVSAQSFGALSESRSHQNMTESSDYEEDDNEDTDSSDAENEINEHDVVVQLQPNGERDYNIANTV
UniProt Q9NVJ2, whole entry: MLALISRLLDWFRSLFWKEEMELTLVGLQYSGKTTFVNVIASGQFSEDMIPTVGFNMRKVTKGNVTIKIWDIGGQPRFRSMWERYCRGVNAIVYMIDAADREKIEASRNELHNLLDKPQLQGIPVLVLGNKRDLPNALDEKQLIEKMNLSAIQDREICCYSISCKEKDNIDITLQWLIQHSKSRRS

How the values were obtained:
Assay in all cases: co-IP
[1] = molecular target: RING finger protein 13 (RNF13), wild type, HA-tagged (human) (UniProt O43567)
[2] = molecular target: ADP-ribosylation factor-like protein 8B (Arl8B), wild type, FLAG-tagged (human) (UniProt Q9NVJ2)
[3] = molecular target: Arl8B Q75L (constitutively active, GTP-locked), FLAG-tagged (human) (UniProt Q9NVJ2)
[4] = molecular target: Arl8B T34N (constitutively inactive, GDP-locked), FLAG-tagged (human) (UniProt Q9NVJ2)

| Substance | binding [1] | further results |
| --- | --- | --- |
| endogenous Arl8B (from UniProt Q9NVJ2 1-186) | binds |  |
| RING finger protein 13 (RNF13), wild type, HA-tagged (from UniProt O43567-1 35-381) |  | binding [2]: binds; binding [3]: binds; binding [4]: binds |
| Arl8B F55A, FLAG-tagged (from UniProt Q9NVJ2-1 1-186) | no binding |  |
| Arl8B, V5-tagged (from UniProt Q9NVJ2 1-186) | binds |  |
| Arl8B E22D, FLAG-tagged (from UniProt Q9NVJ2-1 1-186) | no binding |  |
| ADP-ribosylation factor-like protein 8B (Arl8B), wild type, FLAG-tagged (from UniProt Q9NVJ2-1 1-186) | binds |  |
